The source of these data is PMC5118696, “Identification of inhibitors that dually target the new permeability pathway and dihydroorotate dehydrogenase in the blood stage of Plasmodium falciparum” (Scientific Reports, 2016).

Experiment [1] deals with Hyp1-NLuc Plasmodium falciparum-infected erythrocytes (new permeability pathway, NPP). Put plainly: microbe, parasite or virus in culture. The conditions noted are these: Erythrocyte, 0.33 h, read-out: Mean RLU at 28 min (As % of DMSO control).
Experiment [2] shares this test system. Description: microbe, parasite or virus in culture. The conditions noted are these: Erythrocyte, 0.33 h, read-out: % of control remaining.

Like-named read-outs stand apart in the source and are kept apart here.

Regarding `C=CC12CCN(CC1)C(C(O)c1ccnc3ccc(OC)cc13)C2` (centres unmarked) [MMV665782], the activity at 2 µM amounted to 102% in experiment [1] and 100% in experiment [2].
